Measurements from the supplement of paper PMC9233669.
Variants at the background level are over-represented here.

Legend:
biotinyl-Leu-oxazolone = assay: self-aminoacylation, catalytic enhancement (BLO) (fold over background); higher = more active; k-Seq, kA / k0A0; sequences stand for … in GGGAAUGGAUCCACAUCUACGAAUUC…UUCACUGCAGACUUGACGAAGCUG
Method in brief: (§1)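 Mutagenized RNA pools with a 21-nt variable region (0.43 μM) were reacted with each biotinyl-aminoacyl-oxazolone at 2–1250 μM for 90 minutes at room temperature, in 50 μL HEPES/NaCl/KCl/MgCl2/CaCl2 buffer containing 5% acetonitrile at pH 6.9–7.0. RNA captured on streptavidin was quantified by triplicate qPCR and by Illumina sequencing. The fraction reacted for each sequence was fit to a pseudo-first-order model with bootstrapping, and catalytic enhancement is the median kA divided by the uncatalyzed rate, taken as the low-activity peak of a bimodal Gaussian fit.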

biotinyl-Val-oxazolone = assay: self-aminoacylation, catalytic enhancement (BVO) (fold over background); higher = more active; k-Seq, kA / k0A0; sequences stand for … in GGGAAUGGAUCCACAUCUACGAAUUC…UUCACUGCAGACUUGACGAAGCUG
Method in brief: as §1

biotinyl-Ile-oxazolone = assay: self-aminoacylation, catalytic enhancement (BIO) (fold over background); higher = more active; k-Seq, kA / k0A0; sequences stand for … in GGGAAUGGAUCCACAUCUACGAAUUC…UUCACUGCAGACUUGACGAAGCUG
Method in brief: as §1

biotinyl-Phe-oxazolone = assay: self-aminoacylation, catalytic enhancement (BFO) (fold over background); higher = more active; k-Seq, kA / k0A0; sequences stand for … in GGGAAUGGAUCCACAUCUACGAAUUC…UUCACUGCAGACUUGACGAAGCUG
Method in brief: as §1

biotinyl-Trp-oxazolone = assay: self-aminoacylation, catalytic enhancement (BWO) (fold over background); higher = more active; k-Seq, kA / k0A0; sequences stand for … in GGGAAUGGAUCCACAUCUACGAAUUC…UUCACUGCAGACUUGACGAAGCUG
Method in brief: as §1

biotinyl-Met-oxazolone = assay: self-aminoacylation, catalytic enhancement (BMO) (fold over background); higher = more active; k-Seq, kA / k0A0; sequences stand for … in GGGAAUGGAUCCACAUCUACGAAUUC…UUCACUGCAGACUUGACGAAGCUG
Method in brief: as §1

| Sequence | self-aminoacylation (biotinyl-Leu-oxazolone) | self-aminoacylation (biotinyl-Val-oxazolone) | self-aminoacylation (biotinyl-Ile-oxazolone) | self-aminoacylation (biotinyl-Phe-oxazolone) | self-aminoacylation (biotinyl-Trp-oxazolone) | self-aminoacylation (biotinyl-Met-oxazolone) |
| --- | --- | --- | --- | --- | --- | --- |
| CCACACUUCAAGCGAUUGGUC [Fam1B.1 aminoacylation ribozyme variant] | 0.621 | 0.763 | 0.87 | 0.55 | 0.582 | 0.665 |
| CCACACUUCAAUCAAGCGGUC [Fam1B.1 aminoacylation ribozyme variant] | 0.694 | 0.811 | 0.709 | 0.972 | 0.769 | 0.634 |
| CCACACUUCAAUCAAUCGGAC [Fam1B.1 aminoacylation ribozyme variant] | 0.67 | 0.924 | 0.886 | 1.36 | 0.82 | 0.543 |
| CCACACUUCAAUCUAUCGGUC [Fam1B.1 aminoacylation ribozyme variant] | 0.611 | 0.882 | 0.617 | 1.31 | 0.656 | 0.733 |
| CCACACUUCAUGCAGUCGGUC [Fam1B.1 aminoacylation ribozyme variant] | 1.06 | 0.958 | 0.852 | 0.715 | 0.748 | 1.19 |
| CCACACUUCAUUCAAUCGGUC [Fam1B.1 aminoacylation ribozyme variant] | 0.701 | 0.744 | 0.806 | 0.605 | 0.495 | 0.604 |
| CCACACUUCCAGCAAUCGGUU [Fam1B.1 aminoacylation ribozyme variant] | 1.34 | 1.71 | 1.5 | 1.14 | 1.25 | 1.18 |
| CCACACUUCCAGCACUCGGUC [Fam1B.1 aminoacylation ribozyme variant] | 1.13 | 1.56 | 1.57 | 0.914 | 1.62 | 1.26 |
| CCACACUUCCAGGAAUCGGUC [Fam1B.1 aminoacylation ribozyme variant] | 1.41 | 1.13 | 1.31 | 0.865 | 1.46 | 1.06 |
| CCACACUUCGAGCAGUCGGUC [Fam1B.1 aminoacylation ribozyme variant] | 1.6 | 1.52 | 1.02 | 0.778 | 1.25 | 0.96 |
| CCACACUUCGAGCUAUCGGUC [Fam1B.1 aminoacylation ribozyme variant] | 0.991 | 0.999 | 0.892 | 0.728 | 0.718 | 0.778 |
| CCACACUUCGAGGAAUCGGUC [Fam1B.1 aminoacylation ribozyme variant] | 1.36 | 1.12 | 1.16 | 1.03 | 1.09 | 1.12 |
| CCACACUUCUAGCAAGCGGUC [Fam1B.1 aminoacylation ribozyme variant] | 1.01 | 0.911 | 0.881 | 0.819 | 0.799 | 0.779 |
| CCACACUUCUAGCAAUGGGUC [Fam1B.1 aminoacylation ribozyme variant] | 0.619 | 0.728 | 0.652 | 0.944 | 0.532 | 0.627 |
| CCACACUUCUAGCAGUCGGUC [Fam1B.1 aminoacylation ribozyme variant] | 0.807 | 0.8 | 0.933 | 1.36 | 0.424 | 0.596 |
| CCACACUUCUAGCGAUCGGUC [Fam1B.1 aminoacylation ribozyme variant] | 1.06 | 1.02 | 0.985 | 0.635 | 0.736 | 0.839 |
| CCACACUUCUUGCAAUCGGUC [Fam1B.1 aminoacylation ribozyme variant] | 0.72 | 0.765 | 0.783 | 0.7 | 0.654 | 0.76 |
| CCACACUUGAAGUAAUCGGUC [Fam1B.1 aminoacylation ribozyme variant] | 0.703 | 0.74 | 0.9 | 0.653 | 1.18 | 0.76 |
| CCACACUUUAAGCAAACGGUC [Fam1B.1 aminoacylation ribozyme variant] | 0.552 | 0.86 | 0.706 | 0.702 | 0.444 | 0.522 |
| CCACACUUUAAGCAAUCAGUC [Fam1B.1 aminoacylation ribozyme variant] | 0.69 | 0.874 | 0.76 | 1.03 | 0.749 | 0.541 |
| CCACACUUUAAGCAAUUGGUC [Fam1B.1 aminoacylation ribozyme variant] | 0.551 | 0.656 | 0.548 | 0.71 | 0.478 | 0.644 |
| CCACACUUUAAGCUAUCGGUC [Fam1B.1 aminoacylation ribozyme variant] | 0.81 | 0.959 | 1.04 | 0.784 | 0.767 | 0.726 |
| CCACACUUUAAUCAAUCGGUC [Fam1B.1 aminoacylation ribozyme variant] | 0.56 | 0.723 | 0.701 | 1.34 | 0.666 | 0.666 |
| CCACAGUUCAAGCAAUCGGGC [Fam1B.1 aminoacylation ribozyme variant] | 2.18 | 2.42 | 2.04 | 10 | 3.13 | 2.81 |
| CCACAGUUCAUGCAAUCGGUC [Fam1B.1 aminoacylation ribozyme variant] | 1.16 | 1.12 | 1.1 | 0.779 | 0.884 | 0.972 |
| CCACAUAUCAAGCAAUCGGUC [Fam1B.1 aminoacylation ribozyme variant] | 0.848 | 1.22 | 1.09 | 0.98 | 0.961 | 0.861 |

| Sequence | self-aminoacylation (biotinyl-Leu-oxazolone) | self-aminoacylation (biotinyl-Val-oxazolone) | self-aminoacylation (biotinyl-Ile-oxazolone) | self-aminoacylation (biotinyl-Phe-oxazolone) | self-aminoacylation (biotinyl-Trp-oxazolone) | self-aminoacylation (biotinyl-Met-oxazolone) |
| --- | --- | --- | --- | --- | --- | --- |
| CCACAUUCCAAGCAAUCGGUC [Fam1B.1 aminoacylation ribozyme variant] | 1.2 | 1.41 | 1.35 | 1.21 | 1.02 | 1.25 |
| CCACAUUUCAAGCAAACGGUC [Fam1B.1 aminoacylation ribozyme variant] | 0.914 | 1.07 | 1.17 | 1.32 | 0.904 | 0.901 |
| CCACAUUUCAAGCAAGCGGUC [Fam1B.1 aminoacylation ribozyme variant] | 1.15 | 1.26 | 1.3 | 1.22 | 0.779 | 1.06 |
| CCACCCUUCAAGCAGUCGGUC [Fam1B.1 aminoacylation ribozyme variant] | 1.18 | 1.67 | 1.37 | 1.22 | 1.17 | 1.12 |
| CCACUCUUCAAGCAAUCGGUA [Fam1B.1 aminoacylation ribozyme variant] | 1.14 | 1.33 | 1.2 | 0.73 | 1.47 | 1.23 |
| CCACUCUUCAAGCAUUCGGUC [Fam1B.1 aminoacylation ribozyme variant] | 1.31 | 1.67 | 1.44 | 0.975 | 1.72 | 1.21 |
| CCACUCUUCAAGCUAUCGGUC [Fam1B.1 aminoacylation ribozyme variant] | 0.81 | 1 | 0.841 | 0.862 | 0.736 | 0.853 |
| CCACUCUUCAUGCAAUCGGUC [Fam1B.1 aminoacylation ribozyme variant] | 0.657 | 0.807 | 0.919 | 0.763 | 0.901 | 0.848 |
| CCACUGUUCAAGCAAUCGGUC [Fam1B.1 aminoacylation ribozyme variant] | 0.952 | 1.12 | 1.04 | 1.49 | 1.25 | 1.03 |
| CCACUUCAAACAAUCGAUCUG [Fam1A.1 aminoacylation ribozyme variant] | 0.642 | 0.714 | 0.781 | 4.61 | 1.7 | 0.464 |
| CCACUUCAAACAAUCGGACUG [Fam1A.1 aminoacylation ribozyme variant] | 1.26 | 1.1 | 0.9 | 22.6 | 14.9 | 1.03 |
| CCACUUUUCAAGCAAUCGGUC [Fam1B.1 aminoacylation ribozyme variant] | 1.1 | 1.32 | 1.25 | 1.58 | 1.06 | 1.1 |
| CCAGACUUCCAGCAAUCGGUC [Fam1B.1 aminoacylation ribozyme variant] | 1.25 | 1.47 | 1.44 | 0.843 | 1.06 | 1.47 |
| CCAUACUUCAAGCAAUCGAUC [Fam1B.1 aminoacylation ribozyme variant] | 0.489 | 0.842 | 0.666 | 1.01 | 0.638 | 0.45 |
| CCAUACUUCAGGCAAUCGGUC [Fam1B.1 aminoacylation ribozyme variant] | 1.06 | 1.21 | 1.22 | 0.733 | 1.22 | 1.21 |
| CCAUACUUCAUGCAAUCGGUC [Fam1B.1 aminoacylation ribozyme variant] | 0.832 | 0.858 | 0.875 | 0.778 | 0.56 | 0.806 |
| CCAUACUUCUAGCAAUCGGUC [Fam1B.1 aminoacylation ribozyme variant] | 0.715 | 0.871 | 0.907 | 0.913 | 0.637 | 0.642 |
| CCAUACUUGAAGCAAUCGGUC [Fam1B.1 aminoacylation ribozyme variant] | 0.771 | 0.681 | 0.744 | 0.498 | 0.686 | 0.561 |
| CCAUACUUUAAGCAAUCGGUC [Fam1B.1 aminoacylation ribozyme variant] | 0.746 | 0.857 | 0.906 | 0.907 | 0.599 | 0.655 |
| CCGCACGUCAAGCAAUCGGUC [Fam1B.1 aminoacylation ribozyme variant] | 0.78 | 1.77 | 0.807 | 1.95 | 0.777 | 0.625 |
| CCGCACUUCAAGCAAUCGAUC [Fam1B.1 aminoacylation ribozyme variant] | 0.449 | 0.658 | 0.521 | 1.66 | 0.822 | 0.335 |
| CCGCACUUCAAGCAAUCGGAC [Fam1B.1 aminoacylation ribozyme variant] | 0.812 | 1.12 | 1.07 | 1.31 | 1.86 | 1 |
| CCUCACUACAAGCAAUCGGUC [Fam1B.1 aminoacylation ribozyme variant] | 0.744 | 0.735 | 0.719 | 1.44 | 0.782 | 0.564 |
| CCUCACUUCAAGCAAUCGAUC [Fam1B.1 aminoacylation ribozyme variant] | 0.453 | 0.691 | 0.494 | 1.71 | 0.672 | 0.482 |
| CGACACUUCAAGCAAUGGGUC [Fam1B.1 aminoacylation ribozyme variant] | 0.718 | 0.836 | 0.935 | 0.676 | 0.638 | 0.702 |
